According to publication PMC7819943, “Rice protein-binding microarrays: a tool to detect cis-acting elements near promoter regions in rice”:
The list shows a part of the results.

Chains of the proteins cited; added tags and fusions are not shown.
UniProt Q0JBA9, entry or part of it: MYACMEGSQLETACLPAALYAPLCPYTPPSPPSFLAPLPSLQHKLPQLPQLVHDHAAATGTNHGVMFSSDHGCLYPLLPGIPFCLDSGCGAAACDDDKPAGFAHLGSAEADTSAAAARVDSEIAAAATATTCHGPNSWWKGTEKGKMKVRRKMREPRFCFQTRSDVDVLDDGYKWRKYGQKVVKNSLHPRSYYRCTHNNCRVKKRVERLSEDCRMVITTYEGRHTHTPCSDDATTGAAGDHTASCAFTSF

target: OsWRKY34 (Oryza sativa, UniProt Q0JBA9 1-250); experiment: protein-binding microarray (RPBM); PBS, 2% BSA, 51.3 ng/ul salmon testes DNA, 50 uM zinc acetate, 200 nM TF, 25 C, 1 h; high values mean tight binding; conditions: protein: recombinant; tags: N-terminal polyhistidine and DsRed monomer fusion (pET32a); label: CyDye5-dUTP incorporated in the synthesized complementary strand; 3' TTTTT single-stranded linker to array surface; dsDNA, one strand shown
Summary of the method: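 The binding signal is fluorescence intensity per feature, in arbitrary units, read on an Axon 4000B scanner. Polyhistidine- and DsRed-tagged transcription factors (N-terminal fusions) from E. coli BL21-CodonPlus were purified on Ni–NTA and applied at 200 nM for 1 h at 25 °C to a double-stranded, BSA-blocked custom Agilent array in buffer with 50 µM zinc acetate.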

Sequence	binding signal
CATTCGCTTGCTTCATGCTCTACCGCAAGTCTGCAACTGTCGGAGTCACCTAGTGCAG	9340 fluorescence intensity (a.u.)
AACCTTTTCGCCGTCCTATGACTATTTTTCTCTGGTTTCTCGGAGTCACCTAGTGCAG	14900 fluorescence intensity (a.u.)
CTTACTACTTCAGGGCCTGTTTAGTTCACTAACGAAAATTCGGAGTCACCTAGTGCAG	8400 fluorescence intensity (a.u.)
GGCTTCAACTCACACACATGTTTATTCTACATTTTTTAAGCGGAGTCACCTAGTGCAG	9010 fluorescence intensity (a.u.)
TGGTTTAATTTCATCAGTTTTCCTCCATTTCCTTCTTTAGCGGAGTCACCTAGTGCAG	9830 fluorescence intensity (a.u.)
GTTTTTCGTGGCAGTCATACCTATTGATTTCTGCTGCTACCGGAGTCACCTAGTGCAG	9590 fluorescence intensity (a.u.)
TTCGTCGTAAGCCCTCGCGCCTGTAGTATTGCCTGGACACCGGAGTCACCTAGTGCAG	8350 fluorescence intensity (a.u.)
CAGTACTTTTTCTCATAATTGTTTCGTCGCTGGTTAGCACCGGAGTCACCTAGTGCAG	9060 fluorescence intensity (a.u.)
AAGTCGAGGTCAAAGGTCAATGTCCGTGGTCTCTTTTTATCGGAGTCACCTAGTGCAG	8120 fluorescence intensity (a.u.)
GGTTTGTACAACAATAATATAGAGCGGGGTTTTCTCTTGTCGGAGTCACCTAGTGCAG	8420 fluorescence intensity (a.u.)
TAATGGTTTACATTTTTTTACGTACTTCTAAATCTTTTCCCGGAGTCACCTAGTGCAG	8790 fluorescence intensity (a.u.)
AATATGTTATCACCGCAGATAGTTCTTCTATGTTTAGCATCGGAGTCACCTAGTGCAG	8260 fluorescence intensity (a.u.)
AATCTTCTTTCTGCCAGGCTGACAATTTGCGGCAGCAGACCGGAGTCACCTAGTGCAG	9050 fluorescence intensity (a.u.)
CAGAGGTACCATTTCTATTTTCTCCTTGTGTCCATTAATCCGGAGTCACCTAGTGCAG	8340 fluorescence intensity (a.u.)
TTGCCCTTACAATCATGCATCCATACCAAAATACTTTTACCGGAGTCACCTAGTGCAG	8490 fluorescence intensity (a.u.)
AGAATTTCTTACTCTGCTTTTATTCCCGTGCCAGTGCTCTCGGAGTCACCTAGTGCAG	10900 fluorescence intensity (a.u.)
GCAGTCCAACCATCACCTCAACCGGTCAACATGGATTCTCCGGAGTCACCTAGTGCAG	9540 fluorescence intensity (a.u.)
GCTTAATTTTGTGTTCGTGTGCATGGATTTTGTGTTTCGTCGGAGTCACCTAGTGCAG	8720 fluorescence intensity (a.u.)
CCACACACTTGAAACTCGCAGATTCCTGCCTTGATTAGCACGGAGTCACCTAGTGCAG	8580 fluorescence intensity (a.u.)
AAATATATTACATCTATTGTTCCTATCTATTCCTACGTTGCGGAGTCACCTAGTGCAG	9130 fluorescence intensity (a.u.)
GTGGTCCGGTGGTGGGGTGATGGGGCGTGGCGGTTCTGTCCGGAGTCACCTAGTGCAG	15400 fluorescence intensity (a.u.)

Quoted at random: two records from the list, in no set order.
Sequence	binding signal
CAGAGGTACCATTTCTATTTTCTCCTTGTGTCCATTAATCCGGAGTCACCTAGTGCAG	8340 fluorescence intensity (a.u.)
CATTCGCTTGCTTCATGCTCTACCGCAAGTCTGCAACTGTCGGAGTCACCTAGTGCAG	9340 fluorescence intensity (a.u.)

(listing goes on)

Sequence	binding signal
ACACGGTCTCCAAAACACAACTTTGACTTCTTGTTTCATTCGGAGTCACCTAGTGCAG	12700 fluorescence intensity (a.u.)
TCCTTTTGCCCGCACCATCACCACCACCACCGCCTCCAGACGGAGTCACCTAGTGCAG	12300 fluorescence intensity (a.u.)
TCGTCCCCATCCAACCGTGCGTGCGTGCCGCCCGCGCGCGCGGAGTCACCTAGTGCAG	12200 fluorescence intensity (a.u.)
CGAGCCTCCACGCCTCGAGCACCCTCCTCGCGCCGCCGCTCGGAGTCACCTAGTGCAG	8520 fluorescence intensity (a.u.)
GACACCACATAAAGACACCCATCCCCGTGATCAACTACCTCGGAGTCACCTAGTGCAG	8320 fluorescence intensity (a.u.)
CCCCAGCTGTTTGCCTTTCCTGCCTGCGGGGACGTTTTACCGGAGTCACCTAGTGCAG	8330 fluorescence intensity (a.u.)
TCTCGCGATTTACATGCAAACTGTACAATTAGTTTTTCTTCGGAGTCACCTAGTGCAG	8370 fluorescence intensity (a.u.)
ACCGTGGAGGGAGGGAGGGGCATGGATCTGCTGCGGTGCCCGGAGTCACCTAGTGCAG	10300 fluorescence intensity (a.u.)
TGGAAGTTGTAGGCCTGTTGAATGTTGATGTCTTATTGTCCGGAGTCACCTAGTGCAG	8840 fluorescence intensity (a.u.)
TGGATAGTTTTTGCATTAATACGTTCTAATGTACGTCTTACGGAGTCACCTAGTGCAG	8370 fluorescence intensity (a.u.)
CGTGACCTCCGCCTCCGCCTCCGCCGTCCGCCGCCATCCTCGGAGTCACCTAGTGCAG	9320 fluorescence intensity (a.u.)
GCGCGCTGCCTCGCCCTCGCTATATATTCCGCCCATATTCCGGAGTCACCTAGTGCAG	9630 fluorescence intensity (a.u.)
CGTCCGATTGCCTCCGTTCCACTTCCAGTAATTCCATTAACGGAGTCACCTAGTGCAG	10900 fluorescence intensity (a.u.)
GCCTCCTACACTTACCGTCACCGACCGCGAAAAAATTCCCCGGAGTCACCTAGTGCAG	9330 fluorescence intensity (a.u.)
AAATACTCCTACATCTTTATTTTCTTTTTTGCTAACACAACGGAGTCACCTAGTGCAG	8650 fluorescence intensity (a.u.)
GAGTGGATAGGGAGGTAGTAGTTTGCCCGTCTAATTTTTGCGGAGTCACCTAGTGCAG	8260 fluorescence intensity (a.u.)
CGTTGATCTAGTCTCATATGTCAGTGAACTAACATTTTTTCGGAGTCACCTAGTGCAG	9870 fluorescence intensity (a.u.)
GATGACAAAAGCGGGCACCTCCTTATTTTTACATACGGGTCGGAGTCACCTAGTGCAG	8480 fluorescence intensity (a.u.)
CCTTAAATTTAGAGTTGATTTTGGGTTTTTTTATCGTAAACGGAGTCACCTAGTGCAG	9770 fluorescence intensity (a.u.)
CATCATCATATACTCCGCTAATGTCTGTACCAAATCCTAACGGAGTCACCTAGTGCAG	8490 fluorescence intensity (a.u.)
TAAATTTCCCCGCTATAATTTGTCCTAATTAACCCGTCAGCGGAGTCACCTAGTGCAG	8540 fluorescence intensity (a.u.)
